Values from PubChem BioAssay AID602196 (INSERM, 2012)
Here is an unselected part of about 23,000 reagents tested. Of all reagents, 455 (2%) are marked active. 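Active includes both protection and sensitisation; some change values fall well beyond the stated -50 to +50 range.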 Further read-outs or replicates are left out here. No sequences are given here. Not stated in the record: the amount of reagent.

- Test: 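Knock-downs that protect lung cancer cells from cisplatin or sensitise them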
- Cells: human A549 lung cancer cells
- Reagent: siRNA pair against human genes
- Time to read-out: 48 h transfection before cisplatin; time from cisplatin to read-out not stated
- Conditions: cisplatin at a dose killing half of control-siRNA cells; exact dose and duration not given
- Measurement: 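Shift in cisplatin death relative to control siRNA, from -50 (all cells die) to +50 (no cells die); siRNAs harmful on their own scored 0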
- Scale: two-siRNA summed score (-2 to +2): higher = both siRNAs protect from cisplatin killing; -2 means both sensitise; mean protection from cisplatin (shift in death): higher = protection from cisplatin killing
- Hit rule: 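Each siRNA scores 0 if harmful alone by LDH or WST-1, otherwise +1 if it reduces and -1 if it increases cisplatin killing; a gene is active when both siRNAs agree (sum +2 or -2)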
- Meaning of the calls: active = both siRNAs shift cisplatin killing the same way; inactive = no consistent shift, or siRNA harmful alone

RNGTT
- two-siRNA summed score (-2 to +2): 1
- mean protection from cisplatin (shift in death) (%): 16.3
- outcome: inactive

ZNF24
- two-siRNA summed score (-2 to +2): 0
- mean protection from cisplatin (shift in death) (%): -3.2
- outcome: inactive

GNA11
- two-siRNA summed score (-2 to +2): 0
- mean protection from cisplatin (shift in death) (%): 6.5
- outcome: inactive

DAZAP1
- two-siRNA summed score (-2 to +2): 0
- mean protection from cisplatin (shift in death) (%): 11.5
- outcome: inactive

ENAM
- two-siRNA summed score (-2 to +2): 2
- mean protection from cisplatin (shift in death) (%): 21.1
- outcome: active

ACTE1P
- two-siRNA summed score (-2 to +2): -1
- mean protection from cisplatin (shift in death) (%): 8.1
- outcome: inactive

CIMIP2A
- two-siRNA summed score (-2 to +2): 0
- mean protection from cisplatin (shift in death) (%): 14.1
- outcome: inactive

RBM38
- two-siRNA summed score (-2 to +2): 0
- mean protection from cisplatin (shift in death) (%): 7.1
- outcome: inactive

KIF13B
- two-siRNA summed score (-2 to +2): 0
- mean protection from cisplatin (shift in death) (%): -18.8
- outcome: inactive

S100A7A
- two-siRNA summed score (-2 to +2): 2
- mean protection from cisplatin (shift in death) (%): 11.2
- outcome: active

GTPBP4
- two-siRNA summed score (-2 to +2): 0
- mean protection from cisplatin (shift in death) (%): -0.5
- outcome: inactive

UROC1
- two-siRNA summed score (-2 to +2): 0
- mean protection from cisplatin (shift in death) (%): -5.2
- outcome: inactive

ASAH1
- two-siRNA summed score (-2 to +2): -1
- mean protection from cisplatin (shift in death) (%): -16
- outcome: inactive

RAB38
- two-siRNA summed score (-2 to +2): -1
- mean protection from cisplatin (shift in death) (%): -4.1
- outcome: inactive

PTPRC
- two-siRNA summed score (-2 to +2): 0
- mean protection from cisplatin (shift in death) (%): 4.3
- outcome: inactive

CEP57L1
- two-siRNA summed score (-2 to +2): 0
- mean protection from cisplatin (shift in death) (%): 9.2
- outcome: inactive

MEGF6
- two-siRNA summed score (-2 to +2): -1
- mean protection from cisplatin (shift in death) (%): -2.6
- outcome: inactive

CHRDL2
- two-siRNA summed score (-2 to +2): 0
- mean protection from cisplatin (shift in death) (%): -0.2
- outcome: inactive

SLC30A8
- two-siRNA summed score (-2 to +2): 0
- mean protection from cisplatin (shift in death) (%): 4.3
- outcome: inactive

ENTPD7
- two-siRNA summed score (-2 to +2): 0
- mean protection from cisplatin (shift in death) (%): 8.5
- outcome: inactive

MORC2
- two-siRNA summed score (-2 to +2): 1
- mean protection from cisplatin (shift in death) (%): 13.2
- outcome: inactive

DVL3
- two-siRNA summed score (-2 to +2): 0
- mean protection from cisplatin (shift in death) (%): -9.3
- outcome: inactive

ABCG2
- two-siRNA summed score (-2 to +2): 0
- mean protection from cisplatin (shift in death) (%): 7.6
- outcome: inactive

LOC441806
- two-siRNA summed score (-2 to +2): 0
- mean protection from cisplatin (shift in death) (%): -3.1
- outcome: inactive

EXOSC9
- two-siRNA summed score (-2 to +2): 0
- mean protection from cisplatin (shift in death) (%): 9.6
- outcome: inactive

LOC344741
- two-siRNA summed score (-2 to +2): 0
- mean protection from cisplatin (shift in death) (%): 7.9
- outcome: inactive

LOC390565
- two-siRNA summed score (-2 to +2): 0
- mean protection from cisplatin (shift in death) (%): 11
- outcome: inactive

ADISSP
- two-siRNA summed score (-2 to +2): 0
- mean protection from cisplatin (shift in death) (%): 12.8
- outcome: inactive

CENPI
- two-siRNA summed score (-2 to +2): 0
- mean protection from cisplatin (shift in death) (%): 14.7
- outcome: inactive

IFI44L
- two-siRNA summed score (-2 to +2): 0
- mean protection from cisplatin (shift in death) (%): 11.9
- outcome: inactive

FAM227B
- two-siRNA summed score (-2 to +2): 1
- mean protection from cisplatin (shift in death) (%): 10
- outcome: inactive

Called active (from the list above):
ENAM
- two-siRNA summed score (-2 to +2): 2
- mean protection from cisplatin (shift in death) (%): 21.1
- outcome: active

S100A7A
- two-siRNA summed score (-2 to +2): 2
- mean protection from cisplatin (shift in death) (%): 11.2
- outcome: active
